In the supplement of paper PMC8728848:
Some of the results follow.

Experiments:
Test in all cases: glycan array binding signal (z-score within array); higher = stronger binding
Details in all cases: glycan notation: IUPAC condensed, linker removed
[1] = target: Neu5Ac(a2-3)Gal(b1-4)GlcNAc(b1-6)[Gal(b1-3)]GalNAc
Method in brief: (§1)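 Glycan array data came from 3228 arrays in the Consortium for Functional Glycomics database, and only arrays with an available protein sequence were kept. Glycan names were put into IUPAC-condensed notation, and columns mapping to the same glycan were averaged. The binding signal is a within-array Z-score, averaged across arrays of one protein sequence run at different concentrations or buffers and across linkers. A negative Z-score can be read as non-binding.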

[2] = target: Neu5Ac(a2-3)Gal(b1-4)GlcNAc(b1-6)[Neu5Ac(a2-3)Gal(b1-3)]GalNAc
Method in brief: as §1

[3] = target: Neu5Ac(a2-3)Gal(b1-4)GlcNAc6S
Method in brief: as §1

[4] = target: Neu5Ac(a2-3)Gal(b1-4)[Fuc(a1-3)]GlcNAc
Method in brief: as §1

[5] = target: Neu5Ac(a2-3)Gal(b1-4)[Fuc(a1-3)]GlcNAc(b1-2)Man
Method in brief: as §1

[6] = target: Neu5Ac(a2-3)Gal(b1-4)[Fuc(a1-3)]GlcNAc(b1-3)Gal
Method in brief: as §1

[7] = target: Neu5Ac(a2-3)Gal(b1-4)[Fuc(a1-3)]GlcNAc(b1-3)Gal(b1-4)GlcNAc
Method in brief: as §1

[8] = target: Neu5Ac(a2-3)Gal(b1-4)[Fuc(a1-3)]GlcNAc(b1-3)Gal(b1-4)[Fuc(a1-3)]GlcNAc(b1-3)Gal(b1-4)[Fuc(a1-3)]GlcNAc
Method in brief: as §1

[9] = target: Neu5Ac(a2-3)Gal(b1-4)[Fuc(a1-3)]GlcNAc(b1-3)GalNAc
Method in brief: as §1

[10] = target: Neu5Ac(a2-3)Gal(b1-4)[Fuc(a1-3)]GlcNAc(b1-6)[Gal(b1-3)]GalNAc
Method in brief: as §1

[11] = target: Neu5Ac(a2-3)Gal(b1-4)[Fuc(a1-3)]GlcNAc(b1-6)[Neu5Ac(a2-3)Gal(b1-3)]GalNAc
Method in brief: as §1

[12] = target: Neu5Ac(a2-3)Gal(b1-4)[Fuc(a1-3)]GlcNAc6S
Method in brief: as §1

[13] = target: Neu5Ac(a2-3)Gal6S(b1-4)GlcNAc
Method in brief: as §1

[14] = target: Neu5Ac(a2-3)Gal6S(b1-4)[Fuc(a1-3)]GlcNAc
Method in brief: as §1

Neu5Ac(a2-3)GalNAc = target: Neu5Ac(a2-3)GalNAc
Method in brief: as §1

[15] = target: Neu5Ac(a2-3)GalNAc(b1-4)GlcNAc
Method in brief: as §1

[16] = target: Neu5Ac(a2-3)[GalNAc(b1-4)]Gal(b1-4)Glc
Method in brief: as §1

[17] = target: Neu5Ac(a2-3)[GalNAc(b1-4)]Gal(b1-4)GlcNAc
Method in brief: as §1

[18] = target: Neu5Ac(a2-3)[GalNAc(b1-4)]Gal(b1-4)GlcNAc(b1-3)GalNAc
Method in brief: as §1

[19] = target: Neu5Ac(a2-3)[Neu5Ac(a2-6)]GalNAc
Method in brief: as §1

Neu5Ac(a2-6)Gal = target: Neu5Ac(a2-6)Gal
Method in brief: as §1

[20] = target: Neu5Ac(a2-6)Gal(b1-3)GlcNAc(b1-3)[Gal(b1-4)GlcNAc(b1-6)]Gal(b1-4)Glc
Method in brief: as §1

Neu5Ac(a2-6)Gal(b1-4)Glc = target: Neu5Ac(a2-6)Gal(b1-4)Glc
Method in brief: as §1

[21] = target: Neu5Ac(a2-6)Gal(b1-4)GlcNAc
Method in brief: as §1

[22] = target: Neu5Ac(a2-6)Gal(b1-4)GlcNAc(b1-2)Man
Method in brief: as §1

[23] = target: Neu5Ac(a2-6)Gal(b1-4)GlcNAc(b1-2)Man(a1-3)Man(b1-4)GlcNAc(b1-4)GlcNAc
Method in brief: as §1

[24] = target: Neu5Ac(a2-6)Gal(b1-4)GlcNAc(b1-2)Man(a1-3)[Gal(b1-4)GlcNAc(b1-2)Man(a1-6)]Man(b1-4)GlcNAc(b1-4)GlcNAc
Method in brief: as §1

[25] = target: Neu5Ac(a2-6)Gal(b1-4)GlcNAc(b1-2)Man(a1-3)[GlcNAc(b1-2)Man(a1-6)]Man(b1-4)GlcNAc(b1-4)GlcNAc
Method in brief: as §1

[26] = target: Neu5Ac(a2-6)Gal(b1-4)GlcNAc(b1-2)Man(a1-3)[GlcNAc(b1-4)][Neu5Ac(a2-6)Gal(b1-4)GlcNAc(b1-2)Man(a1-6)]Man(b1-4)GlcNAc(b1-4)GlcNAc
Method in brief: as §1

[27] = target: Neu5Ac(a2-6)Gal(b1-4)GlcNAc(b1-2)Man(a1-3)[Man(a1-6)]Man(b1-4)GlcNAc(b1-4)GlcNAc
Method in brief: as §1

[28] = target: Neu5Ac(a2-6)Gal(b1-4)GlcNAc(b1-2)Man(a1-3)[Neu5Ac(a2-3)Gal(b1-4)GlcNAc(b1-2)Man(a1-6)]Man(b1-4)GlcNAc(b1-4)GlcNAc
Method in brief: as §1

[29] = target: Neu5Ac(a2-6)Gal(b1-4)GlcNAc(b1-2)Man(a1-3)[Neu5Ac(a2-6)Gal(b1-4)GlcNAc(b1-2)Man(a1-6)]Man(b1-4)GlcNAc(b1-4)GlcNAc
Method in brief: as §1

[30] = target: Neu5Ac(a2-6)Gal(b1-4)GlcNAc(b1-2)Man(a1-3)[Neu5Ac(a2-6)Gal(b1-4)GlcNAc(b1-2)Man(a1-6)]Man(b1-4)GlcNAc(b1-4)[Fuc(a1-6)]GlcNAc
Method in brief: as §1

[31] = target: Neu5Ac(a2-6)Gal(b1-4)GlcNAc(b1-2)Man(a1-6)Man(b1-4)GlcNAc(b1-4)GlcNAc
Method in brief: as §1

[32] = target: Neu5Ac(a2-6)Gal(b1-4)GlcNAc(b1-2)Man(a1-6)[Gal(b1-4)GlcNAc(b1-2)Man(a1-3)]Man(b1-4)GlcNAc(b1-4)GlcNAc
Method in brief: as §1

[33] = target: Neu5Ac(a2-6)Gal(b1-4)GlcNAc(b1-2)Man(a1-6)[GlcNAc(b1-2)Man(a1-3)]Man(b1-4)GlcNAc(b1-4)GlcNAc
Method in brief: as §1

[34] = target: Neu5Ac(a2-6)Gal(b1-4)GlcNAc(b1-2)Man(a1-6)[Man(a1-3)]Man(b1-4)GlcNAc(b1-4)GlcNAc
Method in brief: as §1

[35] = target: Neu5Ac(a2-6)Gal(b1-4)GlcNAc(b1-2)[Neu5Ac(a2-6)Gal(b1-4)GlcNAc(b1-4)]Man(a1-3)[GlcNAc(b1-4)][Neu5Ac(a2-6)Gal(b1-4)GlcNAc(b1-2)[Neu5Ac(a2-6)Gal(b1-4)GlcNAc(b1-6)]Man(a1-6)]Man(b1-4)GlcNAc(b1-4)GlcNAc
Method in brief: as §1

[36] = target: Neu5Ac(a2-6)Gal(b1-4)GlcNAc(b1-2)[Neu5Ac(a2-6)Gal(b1-4)GlcNAc(b1-4)]Man(a1-3)[GlcNAc(b1-4)][Neu5Ac(a2-6)Gal(b1-4)GlcNAc(b1-4)Man(a1-6)]Man(b1-4)GlcNAc(b1-4)GlcNAc
Method in brief: as §1

[37] = target: Neu5Ac(a2-6)Gal(b1-4)GlcNAc(b1-2)[Neu5Ac(a2-6)Gal(b1-4)GlcNAc(b1-6)]Man(a1-6)[Neu5Ac(a2-6)Gal(b1-4)GlcNAc(b1-2)Man(a1-3)][GlcNAc(b1-4)]Man(b1-4)GlcNAc(b1-4)GlcNAc
Method in brief: as §1

[38] = target: Neu5Ac(a2-6)Gal(b1-4)GlcNAc(b1-3)Gal(b1-3)GlcNAc
Method in brief: as §1

[39] = target: Neu5Ac(a2-6)Gal(b1-4)GlcNAc(b1-3)Gal(b1-4)GlcNAc
Method in brief: as §1

[40] = target: Neu5Ac(a2-6)Gal(b1-4)GlcNAc(b1-3)Gal(b1-4)GlcNAc(b1-2)Man(a1-3)[Neu5Ac(a2-6)Gal(b1-4)GlcNAc(b1-3)Gal(b1-4)GlcNAc(b1-2)Man(a1-6)]GalNAc
Method in brief: as §1

[41] = target: Neu5Ac(a2-6)Gal(b1-4)GlcNAc(b1-3)Gal(b1-4)GlcNAc(b1-3)Gal(b1-4)GlcNAc
Method in brief: as §1

[42] = target: Neu5Ac(a2-6)Gal(b1-4)GlcNAc(b1-3)Gal(b1-4)GlcNAc(b1-3)Gal(b1-4)GlcNAc(b1-2)Man(a1-3)[Neu5Ac(a2-6)Gal(b1-4)GlcNAc(b1-3)Gal(b1-4)GlcNAc(b1-3)Gal(b1-4)GlcNAc(b1-2)Man(a1-6)]GalNAc
Method in brief: as §1

B1: FliC (Clostridium difficile) (protein)
chain: MRVNTNVSALIANNQMGRNVNGQSKSMEKLSSGVRIKRAADDAAGLAISEKMRAQIKGLDQAGRNVQDGISVVQTAEGSLEETGNILQRMRTLSLQSANEINNTEEREKIADELTQLKDEIERISSSTEFNGKKLLDGTSSTIRLQVGASYGTNVSGTSNNNNEIKIQLVNTASIMASAGITTASIGSMKAGGTTGTDAAKTMVSSLDAALKSLNSSRAKLGAQQNRLESTQNNLNNTLENVTAAESRIRDTDVASEMVNLSKMNILVQASQSMLAQANQQPQGVLQLLG
glycan array binding signal (z-score) [1]: 0.457
glycan array binding signal (z-score) [2]: 0.606
glycan array binding signal (z-score) [3]: -0.623
glycan array binding signal (z-score) [4]: -0.47
glycan array binding signal (z-score) [5]: -0.259
glycan array binding signal (z-score) [6]: -0.24
glycan array binding signal (z-score) [7]: 0.302
glycan array binding signal (z-score) [8]: -0.532
glycan array binding signal (z-score) [9]: -0.403
glycan array binding signal (z-score) [10]: 0.301
glycan array binding signal (z-score) [11]: -0.082
glycan array binding signal (z-score) [12]: -0.233
glycan array binding signal (z-score) [13]: -0.384
glycan array binding signal (z-score) [14]: -0.433
glycan array binding signal (z-score) (Neu5Ac(a2-3)GalNAc): -0.695
glycan array binding signal (z-score) [15]: -0.324
glycan array binding signal (z-score) [16]: -0.049
glycan array binding signal (z-score) [17]: -0.037
glycan array binding signal (z-score) [18]: -0.543
glycan array binding signal (z-score) [19]: -0.725
glycan array binding signal (z-score) (Neu5Ac(a2-6)Gal): 0.803
glycan array binding signal (z-score) [20]: -0.2
glycan array binding signal (z-score) (Neu5Ac(a2-6)Gal(b1-4)Glc): 0.551
glycan array binding signal (z-score) [21]: -0.807
glycan array binding signal (z-score) [22]: 0.072
glycan array binding signal (z-score) [23]: -0.236
glycan array binding signal (z-score) [24]: -0.515
glycan array binding signal (z-score) [25]: 0.511
glycan array binding signal (z-score) [26]: -0.478
glycan array binding signal (z-score) [27]: -0.225
glycan array binding signal (z-score) [28]: -0.327
glycan array binding signal (z-score) [29]: -0.029
glycan array binding signal (z-score) [30]: -0.282
glycan array binding signal (z-score) [31]: -0.54
glycan array binding signal (z-score) [32]: -0.817
glycan array binding signal (z-score) [33]: 0.217
glycan array binding signal (z-score) [34]: -0.487
glycan array binding signal (z-score) [35]: -0.178
glycan array binding signal (z-score) [36]: 0.199
glycan array binding signal (z-score) [37]: -0.518
glycan array binding signal (z-score) [38]: -0.801
glycan array binding signal (z-score) [39]: -0.331
glycan array binding signal (z-score) [40]: 0.644
glycan array binding signal (z-score) [41]: -0.328
glycan array binding signal (z-score) [42]: 2.32
